Data on one substance can be found in article PMC7035669.

The chains behind the UniProt entries cited, without tags or fusion partners. Residues count along the entry.
UniProt P05556, residues 752-798: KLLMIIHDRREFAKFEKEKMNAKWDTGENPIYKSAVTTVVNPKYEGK

No constants are given. Whether binding was seen depends on the method and setting. In cells and extracts the contact can be indirect. Binding can be weak; no strength is given.

The target in the experiment is Integrin β1 (ITGβ1) cytoplasmic tail, wild type (UniProt P05556). Nature of the experiment: pull-down; ITGβ1 tails immobilised on beads; lysates of CHO cells transfected with full length FLNA-GFP; buffer XT with 10 mM imidazole, beads washed three times; only the target purified.

For “Full length human FLNA with C-terminal GFP, ΔIg20 (from UniProt P21333-1)”, the binding result is reported as “binds”.
